Here are results for one molecule from PMC9995517.

No constants are given. Whether binding was seen depends on the method and setting. Where a sequence is shown, tags or fusion partners need not be part of it.

Test [1] concerns the target T1, tyrosyl-tRNA synthetase, wild type, recombinant Xpress-6xHis tagged (His-YARS1^WT) (human) (UniProt P54577).
T1 sequence: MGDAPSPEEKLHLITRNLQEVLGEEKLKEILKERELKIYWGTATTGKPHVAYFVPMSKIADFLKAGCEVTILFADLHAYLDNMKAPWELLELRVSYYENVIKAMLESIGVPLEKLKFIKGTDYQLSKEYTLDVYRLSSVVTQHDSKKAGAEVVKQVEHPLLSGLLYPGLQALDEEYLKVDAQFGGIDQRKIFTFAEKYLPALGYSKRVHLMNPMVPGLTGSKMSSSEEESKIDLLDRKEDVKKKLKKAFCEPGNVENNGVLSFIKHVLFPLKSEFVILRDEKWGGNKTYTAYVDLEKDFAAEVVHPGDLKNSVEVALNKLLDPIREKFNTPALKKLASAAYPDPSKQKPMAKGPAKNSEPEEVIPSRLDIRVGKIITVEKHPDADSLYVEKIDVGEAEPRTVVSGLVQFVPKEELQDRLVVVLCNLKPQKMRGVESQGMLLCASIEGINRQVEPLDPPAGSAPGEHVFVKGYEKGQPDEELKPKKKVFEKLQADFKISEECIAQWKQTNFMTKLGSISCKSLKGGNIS
Put plainly: pull-down; recombinant His-YARS1 preincubated individually with GST-PLS3 or α-actinin and magnetic Dynabeads, 20 min at room temperature; 50 mM NaP pH 8.0, 300 mM NaCl, 0.01% Tween-20; four washes; imidazole elution; SDS-PAGE, Coomassie; both purified.

The target in test [2] is T1, tyrosyl-tRNA synthetase, wild type, recombinant Xpress-6xHis tagged (His-YARS1^WT) (human). Put plainly: co-IP; recombinant GST-PLS3 (2 µg) with recombinant His-YARS1 (2 µg) in PBS with 0.05% Tween-20, pH 7.4, 1 h at 4 °C; YARS1 immunoprecipitated with YARS antibody; Western blot for YARS1 and PLS3; both purified. Background: Immunoblotting shows a protein as a band on a membrane.

B1: recombinant GST-tagged PLS3 (protein, UniProt P13797 1-630)
chain: MDEMATTQISKDELDELKEAFAKVDLNSNGFICDYELHELFKEANMPLPGYKVREIIQKLMLDGDRNKDGKISFDEFVYIFQEVKSSDIAKTFRKAINRKEGICALGGTSELSSEGTQHSYSEEEKYAFVNWINKALENDPDCRHVIPMNPNTDDLFKAVGDGIVLCKMINLSVPDTIDERAINKKKLTPFIIQENLNLALNSASAIGCHVVNIGAEDLRAGKPHLVLGLLWQIIKIGLFADIELSRNEALAALLRDGETLEELMKLSPEELLLRWANFHLENSGWQKINNFSADIKDSKAYFHLLNQIAPKGQKEGEPRIDINMSGFNETDDLKRAESMLQQADKLGCRQFVTPADVVSGNPKLNLAFVANLFNKYPALTKPENQDIDWTLLEGETREERTFRNWMNSLGVNPHVNHLYADLQDALVILQLYERIKVPVDWSKVNKPPYPKLGANMKKLENCNYAVELGKHPAKFSLVGIGGQDLNDGNQTLTLALVWQLMRRYTLNVLEDLGDGQKANDDIIVNWVNRTLSEAGKSTSIQSFKDKTISSSLAVVDLIDAIQPGCINYDLVKSGNLTEDDKHNNAKYAVSMARRIGARVYALPEDLVEVKPKMVMTVFACLMGRGMKRV
Turning to B1, the binding entry in test [1] is reported as “no binding”; in test [2], “no binding (tested: 2 µg of each protein)”.
